From the supplement of paper PMC12819154, “High-throughput peptide-centric local stability assay extends protein–ligand identification to membrane proteins, tissues and bacteria” (Nature Structural & Molecular Biology, 2025) come the findings set out here.

By UniProt entry, the sequences of proteins in these tests, tags left out. Where a name states a change or a piece, a line headed by the entry shows the natural chain unless it says otherwise.
UniProt Q8K3X6: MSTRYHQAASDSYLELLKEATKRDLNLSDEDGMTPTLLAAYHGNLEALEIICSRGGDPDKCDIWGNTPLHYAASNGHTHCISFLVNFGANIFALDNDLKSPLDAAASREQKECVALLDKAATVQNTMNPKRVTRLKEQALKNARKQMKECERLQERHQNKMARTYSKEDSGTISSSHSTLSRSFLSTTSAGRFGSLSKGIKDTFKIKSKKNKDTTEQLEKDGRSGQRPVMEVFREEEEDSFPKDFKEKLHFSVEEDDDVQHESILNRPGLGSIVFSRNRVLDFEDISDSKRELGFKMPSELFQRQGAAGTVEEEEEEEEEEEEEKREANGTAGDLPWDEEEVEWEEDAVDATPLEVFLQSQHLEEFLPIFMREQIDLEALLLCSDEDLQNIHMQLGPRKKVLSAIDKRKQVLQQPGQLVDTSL
UniProt Q8K5B2: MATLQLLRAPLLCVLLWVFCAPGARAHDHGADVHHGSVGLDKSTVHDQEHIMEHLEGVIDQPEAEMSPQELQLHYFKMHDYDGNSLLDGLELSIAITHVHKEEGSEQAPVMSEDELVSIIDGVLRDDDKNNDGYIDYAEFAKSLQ
UniProt Q8K363: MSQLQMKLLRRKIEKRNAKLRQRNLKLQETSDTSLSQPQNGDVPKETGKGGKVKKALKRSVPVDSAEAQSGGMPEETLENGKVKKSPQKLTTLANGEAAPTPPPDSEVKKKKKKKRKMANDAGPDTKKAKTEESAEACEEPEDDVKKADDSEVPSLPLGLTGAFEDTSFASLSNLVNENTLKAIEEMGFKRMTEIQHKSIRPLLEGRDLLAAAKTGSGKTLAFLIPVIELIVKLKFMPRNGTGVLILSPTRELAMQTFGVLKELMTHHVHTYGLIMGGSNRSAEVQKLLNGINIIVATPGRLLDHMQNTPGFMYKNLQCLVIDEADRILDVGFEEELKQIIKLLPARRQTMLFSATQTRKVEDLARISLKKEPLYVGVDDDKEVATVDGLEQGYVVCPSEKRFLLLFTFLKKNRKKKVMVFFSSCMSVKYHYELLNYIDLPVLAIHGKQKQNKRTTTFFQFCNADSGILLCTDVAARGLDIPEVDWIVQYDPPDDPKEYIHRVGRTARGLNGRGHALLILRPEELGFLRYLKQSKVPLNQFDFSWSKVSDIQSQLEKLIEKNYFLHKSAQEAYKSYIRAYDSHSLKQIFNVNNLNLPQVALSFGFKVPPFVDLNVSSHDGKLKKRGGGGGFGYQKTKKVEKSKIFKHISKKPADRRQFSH
UniProt Q8K2R5: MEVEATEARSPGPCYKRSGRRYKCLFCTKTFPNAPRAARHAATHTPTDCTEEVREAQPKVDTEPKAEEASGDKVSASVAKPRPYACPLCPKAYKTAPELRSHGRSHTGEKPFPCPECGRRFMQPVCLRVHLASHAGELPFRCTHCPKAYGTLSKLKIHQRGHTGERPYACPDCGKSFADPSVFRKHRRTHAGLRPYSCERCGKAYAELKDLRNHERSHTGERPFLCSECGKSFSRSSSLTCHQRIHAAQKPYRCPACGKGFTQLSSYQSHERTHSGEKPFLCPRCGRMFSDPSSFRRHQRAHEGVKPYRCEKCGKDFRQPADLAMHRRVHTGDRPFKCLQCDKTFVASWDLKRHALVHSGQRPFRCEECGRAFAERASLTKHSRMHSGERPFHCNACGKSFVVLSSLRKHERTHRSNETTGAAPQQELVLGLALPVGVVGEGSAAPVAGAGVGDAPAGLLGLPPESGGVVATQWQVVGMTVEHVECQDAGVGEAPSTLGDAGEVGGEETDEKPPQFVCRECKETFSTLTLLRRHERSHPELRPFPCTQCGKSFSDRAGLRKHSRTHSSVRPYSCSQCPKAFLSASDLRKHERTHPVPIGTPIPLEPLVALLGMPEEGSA
UniProt Q8R0S2: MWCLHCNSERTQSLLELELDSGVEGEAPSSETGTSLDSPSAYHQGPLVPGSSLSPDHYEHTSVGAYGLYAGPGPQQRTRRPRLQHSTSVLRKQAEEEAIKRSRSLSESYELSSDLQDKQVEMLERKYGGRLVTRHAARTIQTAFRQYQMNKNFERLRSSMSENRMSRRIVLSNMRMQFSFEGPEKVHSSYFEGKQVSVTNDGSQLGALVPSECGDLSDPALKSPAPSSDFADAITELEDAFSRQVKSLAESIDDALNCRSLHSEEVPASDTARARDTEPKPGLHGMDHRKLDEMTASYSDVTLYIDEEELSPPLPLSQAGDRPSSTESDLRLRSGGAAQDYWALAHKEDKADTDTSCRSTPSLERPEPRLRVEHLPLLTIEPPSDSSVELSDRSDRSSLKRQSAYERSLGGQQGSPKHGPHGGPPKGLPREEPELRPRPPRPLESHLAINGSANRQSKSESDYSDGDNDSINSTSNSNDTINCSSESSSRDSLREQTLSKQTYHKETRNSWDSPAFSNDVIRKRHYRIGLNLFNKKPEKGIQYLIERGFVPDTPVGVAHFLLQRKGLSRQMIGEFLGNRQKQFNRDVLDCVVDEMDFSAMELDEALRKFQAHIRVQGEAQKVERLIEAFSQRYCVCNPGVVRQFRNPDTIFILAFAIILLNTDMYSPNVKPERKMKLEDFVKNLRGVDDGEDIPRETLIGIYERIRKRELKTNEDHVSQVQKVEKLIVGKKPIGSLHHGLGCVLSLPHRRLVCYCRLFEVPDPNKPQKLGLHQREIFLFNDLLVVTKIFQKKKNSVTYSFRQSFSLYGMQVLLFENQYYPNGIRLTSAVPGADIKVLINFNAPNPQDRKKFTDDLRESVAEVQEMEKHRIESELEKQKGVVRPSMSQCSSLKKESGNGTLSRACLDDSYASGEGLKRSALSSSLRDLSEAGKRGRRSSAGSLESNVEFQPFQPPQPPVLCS
UniProt Q8K3H0: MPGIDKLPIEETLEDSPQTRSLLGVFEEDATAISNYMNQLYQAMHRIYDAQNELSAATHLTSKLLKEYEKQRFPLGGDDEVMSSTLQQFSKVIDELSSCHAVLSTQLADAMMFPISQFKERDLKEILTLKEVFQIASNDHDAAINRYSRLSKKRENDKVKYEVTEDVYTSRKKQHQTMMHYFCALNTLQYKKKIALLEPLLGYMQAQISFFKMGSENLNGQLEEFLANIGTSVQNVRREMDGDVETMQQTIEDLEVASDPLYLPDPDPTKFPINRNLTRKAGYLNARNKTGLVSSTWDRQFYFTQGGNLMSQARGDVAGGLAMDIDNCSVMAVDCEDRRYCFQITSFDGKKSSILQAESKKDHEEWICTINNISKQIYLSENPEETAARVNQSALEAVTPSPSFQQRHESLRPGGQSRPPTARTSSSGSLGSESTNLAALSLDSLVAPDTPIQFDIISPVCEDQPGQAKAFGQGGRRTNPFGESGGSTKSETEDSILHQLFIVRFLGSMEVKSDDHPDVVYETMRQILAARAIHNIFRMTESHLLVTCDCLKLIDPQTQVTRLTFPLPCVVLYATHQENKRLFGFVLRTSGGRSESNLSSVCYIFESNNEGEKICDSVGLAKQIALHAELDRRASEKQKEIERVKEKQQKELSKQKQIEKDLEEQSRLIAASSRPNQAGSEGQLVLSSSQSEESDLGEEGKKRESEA
UniProt Q8R015: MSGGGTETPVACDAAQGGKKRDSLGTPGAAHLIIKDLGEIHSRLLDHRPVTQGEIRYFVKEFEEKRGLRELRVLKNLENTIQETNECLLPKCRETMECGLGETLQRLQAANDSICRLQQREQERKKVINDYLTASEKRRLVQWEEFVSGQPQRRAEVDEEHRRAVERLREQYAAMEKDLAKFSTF
UniProt Q8R105: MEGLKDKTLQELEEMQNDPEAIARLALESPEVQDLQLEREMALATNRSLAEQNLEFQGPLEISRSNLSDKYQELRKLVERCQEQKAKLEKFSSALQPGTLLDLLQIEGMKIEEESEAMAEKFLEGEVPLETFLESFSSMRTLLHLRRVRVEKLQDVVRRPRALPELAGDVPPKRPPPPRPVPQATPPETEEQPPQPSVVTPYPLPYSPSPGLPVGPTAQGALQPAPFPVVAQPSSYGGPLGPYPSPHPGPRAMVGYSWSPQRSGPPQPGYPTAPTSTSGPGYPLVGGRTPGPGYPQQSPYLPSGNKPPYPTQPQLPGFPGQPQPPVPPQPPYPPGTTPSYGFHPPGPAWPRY
UniProt Q8K304: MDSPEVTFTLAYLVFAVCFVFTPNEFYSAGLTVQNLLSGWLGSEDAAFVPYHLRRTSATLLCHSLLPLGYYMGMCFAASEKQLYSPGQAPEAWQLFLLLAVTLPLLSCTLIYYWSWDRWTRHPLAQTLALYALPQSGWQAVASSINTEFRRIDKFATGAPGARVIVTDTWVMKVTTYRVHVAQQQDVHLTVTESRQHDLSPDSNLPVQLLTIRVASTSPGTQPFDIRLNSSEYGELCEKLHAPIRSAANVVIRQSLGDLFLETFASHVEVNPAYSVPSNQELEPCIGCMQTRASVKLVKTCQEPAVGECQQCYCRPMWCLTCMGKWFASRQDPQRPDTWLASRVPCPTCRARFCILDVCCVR
UniProt Q8R1M0: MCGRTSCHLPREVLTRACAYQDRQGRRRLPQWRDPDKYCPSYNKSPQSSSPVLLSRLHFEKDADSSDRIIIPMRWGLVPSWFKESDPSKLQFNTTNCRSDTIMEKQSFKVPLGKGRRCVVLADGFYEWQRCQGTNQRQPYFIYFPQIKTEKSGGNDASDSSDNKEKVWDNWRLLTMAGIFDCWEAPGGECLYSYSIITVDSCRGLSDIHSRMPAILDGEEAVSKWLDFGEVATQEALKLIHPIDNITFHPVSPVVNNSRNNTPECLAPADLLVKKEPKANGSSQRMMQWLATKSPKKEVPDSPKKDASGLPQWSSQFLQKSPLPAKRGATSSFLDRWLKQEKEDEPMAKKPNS
UniProt Q8K157: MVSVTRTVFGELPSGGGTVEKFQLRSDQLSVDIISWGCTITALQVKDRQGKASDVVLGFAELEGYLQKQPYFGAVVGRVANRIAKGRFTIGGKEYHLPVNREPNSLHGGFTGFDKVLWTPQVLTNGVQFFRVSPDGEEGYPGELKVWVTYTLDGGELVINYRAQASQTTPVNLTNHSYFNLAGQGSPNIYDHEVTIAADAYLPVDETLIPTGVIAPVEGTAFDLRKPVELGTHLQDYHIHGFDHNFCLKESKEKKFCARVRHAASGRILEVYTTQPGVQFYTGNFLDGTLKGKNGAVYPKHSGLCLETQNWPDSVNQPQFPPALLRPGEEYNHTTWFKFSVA
UniProt Q8K2A1: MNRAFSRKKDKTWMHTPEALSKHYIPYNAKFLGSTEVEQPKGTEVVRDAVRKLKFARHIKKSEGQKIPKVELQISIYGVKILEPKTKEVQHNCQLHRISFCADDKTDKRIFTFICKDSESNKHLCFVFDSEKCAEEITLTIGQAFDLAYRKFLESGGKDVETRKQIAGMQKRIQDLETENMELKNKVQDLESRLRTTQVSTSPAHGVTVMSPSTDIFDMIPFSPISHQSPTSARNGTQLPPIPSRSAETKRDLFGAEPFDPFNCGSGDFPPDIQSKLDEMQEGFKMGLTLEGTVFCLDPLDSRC
UniProt Q8R2R9: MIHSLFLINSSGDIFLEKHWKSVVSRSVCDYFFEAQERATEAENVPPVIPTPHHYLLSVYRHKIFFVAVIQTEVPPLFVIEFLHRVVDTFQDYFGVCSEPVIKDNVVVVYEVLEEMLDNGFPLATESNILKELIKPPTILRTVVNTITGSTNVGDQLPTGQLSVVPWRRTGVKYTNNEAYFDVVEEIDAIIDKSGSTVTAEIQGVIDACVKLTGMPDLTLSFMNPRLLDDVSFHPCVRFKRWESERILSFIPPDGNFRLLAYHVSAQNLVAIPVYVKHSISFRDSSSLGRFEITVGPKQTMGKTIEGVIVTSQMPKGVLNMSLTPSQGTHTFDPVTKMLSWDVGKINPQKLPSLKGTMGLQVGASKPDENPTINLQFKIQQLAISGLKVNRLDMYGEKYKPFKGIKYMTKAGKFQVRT
UniProt Q8R1F1: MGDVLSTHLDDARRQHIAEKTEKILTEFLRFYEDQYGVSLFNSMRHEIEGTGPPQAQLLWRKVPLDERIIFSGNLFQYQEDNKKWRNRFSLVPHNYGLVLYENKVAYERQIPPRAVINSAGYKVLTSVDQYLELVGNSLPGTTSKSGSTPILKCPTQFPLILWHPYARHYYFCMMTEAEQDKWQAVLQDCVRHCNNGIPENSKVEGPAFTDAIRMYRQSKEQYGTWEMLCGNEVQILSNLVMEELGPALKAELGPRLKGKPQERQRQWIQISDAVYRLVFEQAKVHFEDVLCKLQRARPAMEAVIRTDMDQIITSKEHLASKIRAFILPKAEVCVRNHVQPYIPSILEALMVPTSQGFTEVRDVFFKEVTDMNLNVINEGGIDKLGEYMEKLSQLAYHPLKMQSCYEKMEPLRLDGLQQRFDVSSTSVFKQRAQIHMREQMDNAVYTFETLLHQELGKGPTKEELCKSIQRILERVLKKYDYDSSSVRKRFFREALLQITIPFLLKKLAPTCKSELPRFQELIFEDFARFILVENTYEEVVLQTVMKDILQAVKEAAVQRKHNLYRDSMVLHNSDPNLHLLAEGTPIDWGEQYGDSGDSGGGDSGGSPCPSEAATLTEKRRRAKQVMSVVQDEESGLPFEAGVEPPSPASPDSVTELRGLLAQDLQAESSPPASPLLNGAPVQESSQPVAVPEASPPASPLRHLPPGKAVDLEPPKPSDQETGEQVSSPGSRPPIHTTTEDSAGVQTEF

The other results are listed elsewhere or left out. Most entries show no effect beyond the scatter of the controls.

Compound in this test: CN[C@@H]1C[C@H]2O[C@@](C)([C@@H]1OC)n1c3ccccc3c3c4c(c5c6ccccc6n2c5c31)C(=O)NC4 [staurosporine]
Put plainly: log2 fold change of tryptic peptide abundance, ligand vs vehicle (limited proteolysis) (log2 ratio); higher = more trypsin-susceptible (destabilized). To be noted: ligand concentration: 20 uM; sample: mouse liver crude lysate; replicate design: treated separately.

For “UniProt Q8K440 (peptide sequence: VLLELEMK, peptide start residue: 599)”, the log2 fold change is -0.535. As for “UniProt Q8K3X6 (peptide sequence: TYSKEDSGTISSSHSTLSR, peptide start residue: 164)”, the figure is -0.0895; as for “UniProt Q8K2Q0 (peptide sequence: IRDQLSAVANK, peptide start residue: 188)”, -0.373. As for “UniProt Q8K3J9 (peptide sequence: GVGYETILK, peptide start residue: 320)”, the figure is -0.0815; as for “UniProt Q8R2R6 (peptide sequence: GLSNVLFTNCVKDENIK, peptide start residue: 103)”, 0.204.

Regarding “UniProt Q8K5B2 (peptide sequence: DDDKNNDGYIDYAEFAK, peptide start residue: 126)”, the log2 fold change is -0.0835. The figure for “UniProt Q8R0J4 (peptide sequence: ARFEVADEDKQSR, peptide start residue: 42)” is 0.18; for “UniProt Q8K2B3 (peptide sequence: GEGGILINSQGER, peptide start residue: 313)” it is -0.19. The figure for “UniProt Q8K3D3 (peptide sequence: EKHDMLDKEISQLIAEGYR, peptide start residue: 22)” is -0.0982; for “UniProt Q8R1G6 (peptide sequence: YRHPGCYTCADCGLNLK, peptide start residue: 302)” it is -0.691.

As for “UniProt Q8K363 (peptide sequence: GHALLILRPEELGFLR, peptide start residue: 514)”, the log2 fold change was 0.211. The figure for “UniProt Q8K2R5 (peptide sequence: RHERSHPELR, peptide start residue: 533)” is 0.155; for “UniProt Q8K207 (peptide sequence: EIPGLVHQPR, peptide start residue: 78)” it is 0.0424; for “UniProt Q8K1B8 (peptide sequence: QYWVVFK, peptide start residue: 371)” it is 0.178. Turning to “UniProt Q8R071 (peptide sequence: TYLEEELTK, peptide start residue: 267)”, the log2 fold change is -0.176. With “UniProt Q8R0S2 (peptide sequence: GVVRPSMSQCSSLK, peptide start residue: 879)”, the log2 fold change was -0.512.

Turning to “UniProt Q8K1C9 (peptide sequence: RSTQESLAIGGTDSK, peptide start residue: 325)”, the log2 fold change was -0.28.

For “UniProt Q8K3H0 (peptide sequence: TGLVSSTWDR, peptide start residue: 290)”, the log2 fold change is -0.191. With “UniProt Q8K2H1 (peptide sequence: YYSHVDCR, peptide start residue: 66)”, the log2 fold change was 0.587. For “UniProt Q8K4I3 (peptide sequence: EIKPSERPLSPK, peptide start residue: 215)”, the log2 fold change was 0.247. The figure for “UniProt Q8R015 (peptide sequence: AEVDEEHR, peptide start residue: 155)” is -0.485; for “UniProt Q8QZT4 (peptide sequence: QTEGTYRPSSEEQVGAR, peptide start residue: 81)” it is 0.164; for “UniProt Q8R1J3 (peptide sequence: RPLSATSWEDMKK, peptide start residue: 14)” it is 0.216.

In the case of “UniProt Q8K2H4 (peptide sequence: GAENLEAALTHNAEVPR, peptide start residue: 130)”, the log2 fold change was 0.282. As for “UniProt Q8K190 (peptide sequence: TATGWLTR, peptide start residue: 44)”, the figure is -0.0181. As for “UniProt Q8R2N2 (peptide sequence: DTPITHISFHPK, peptide start residue: 580)”, the figure is 0.415; as for “UniProt Q8R105 (peptide sequence: SNLSDKYQELR, peptide start residue: 65)”, 0.0485. “UniProt Q8K304 (peptide sequence: VIVTDTWVMK, peptide start residue: 164)”: the log2 fold change was determined as 0.37. The figure for “UniProt Q8R1M0 (peptide sequence: MMQWLATK, peptide start residue: 286)” is 0.344; for “UniProt Q8K135 (peptide sequence: ILDATDQESLELKPTSR, peptide start residue: 969)” it is -0.0449. For “UniProt Q8K157 (peptide sequence: EYHLPVNR, peptide start residue: 94)”, the log2 fold change turned out to be 0.19. The figure for “UniProt Q8R0T6 (peptide sequence: LDQAHSVSQE, peptide start residue: 533)” is -0.0122; for “UniProt Q8K2Y7 (peptide sequence: FFAMPYVDR, peptide start residue: 201)” it is 0.198; for “UniProt Q8K2A1 (peptide sequence: ISFCADDKTDKR, peptide start residue: 98)” it is -0.325. “UniProt Q8R2R9 (peptide sequence: ELIKPPTILR, peptide start residue: 132)”: the log2 fold change stood at 0.334. Turning to “UniProt Q8R1F1 (peptide sequence: TDMDQIITSK, peptide start residue: 307)”, the log2 fold change is 0.601.

Take “UniProt Q8K4X7 (peptide sequence: YLFLIHCEGTR, peptide start residue: 169)”: the log2 fold change was found to be 0.678.
